Data taken from PubChem BioAssay AID1671190 (National Center for Advancing Translational Sciences (NCATS), 2021).
Several values for one entry are separate records, joined by “and”; a condition that tells them apart may be missing. Identical values can stand only once. The whole screen tested about 580,000 compounds, of which about 6,100 (1.1%) were called active. The inconclusive results got no clear call from the source; some entries with a clear call stand among them for comparison. Calls come from the whole dose curve; as a rule, active = well fitted inhibition curve with a large enough effect; inconclusive = small, poorly fitted or top-dose-only effect, or another doubt; inactive = no such curve, though single readings can be large or run the other way. Where the call is inconclusive, the potency comes from a doubtful curve fit.

Chains of the proteins cited; added tags and fusions are not shown.
UniProt P18054, whole entry, looked up: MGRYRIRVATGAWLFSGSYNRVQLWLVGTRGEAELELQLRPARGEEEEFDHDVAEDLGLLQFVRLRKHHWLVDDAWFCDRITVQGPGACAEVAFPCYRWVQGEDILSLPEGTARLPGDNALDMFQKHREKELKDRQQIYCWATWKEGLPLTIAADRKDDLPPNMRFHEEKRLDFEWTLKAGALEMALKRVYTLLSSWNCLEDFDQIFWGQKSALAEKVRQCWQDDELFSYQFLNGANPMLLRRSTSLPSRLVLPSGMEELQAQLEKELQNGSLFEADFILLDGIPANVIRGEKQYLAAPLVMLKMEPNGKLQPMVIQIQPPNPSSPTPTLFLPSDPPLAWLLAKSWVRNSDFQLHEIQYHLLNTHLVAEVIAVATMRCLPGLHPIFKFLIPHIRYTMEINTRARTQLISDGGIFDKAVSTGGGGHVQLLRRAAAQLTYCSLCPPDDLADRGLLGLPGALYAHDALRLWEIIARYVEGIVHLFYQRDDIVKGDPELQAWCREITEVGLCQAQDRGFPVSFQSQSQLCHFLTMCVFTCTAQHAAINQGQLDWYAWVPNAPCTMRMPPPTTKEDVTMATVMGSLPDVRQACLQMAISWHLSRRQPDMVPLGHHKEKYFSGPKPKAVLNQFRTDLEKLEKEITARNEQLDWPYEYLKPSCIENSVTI

Each compound was assayed against Polyunsaturated fatty acid lipoxygenase ALOX12 (Homo sapiens) (UniProt P18054) (assay: Primary qHTS assay for inhibitors of human arachidonate 12S-lipoxygenase (ALOX12): Round 2). Settings: purified 12hLO, xylenol orange hydroperoxide absorbance; series mostly up to 108 µM.
In short: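 Purified human 12hLO (150 nM final) in 25 mM Hepes, 0.01% Triton X-100, pH 7.0 was preincubated 15 min at room temperature with compound. Then 40 uM arachidonic acid was added, 30 min. Hydroperoxide was read by Fe-XO absorbance ratio 573/405 nm.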
Potency is the fitted concentration of half-maximal effect.

Row | Structure (SMILES) | Potency
1 | CNC(=O)c1c(NC(=O)c2ccco2)sc(C)c1C | inactive
2 | COc1ccc(S(=O)(=O)N2CCN(CC(=O)c3[nH]c(C)c(C(C)=O)c3C)CC2)cc1OC | inactive
3 | Cc1cc(C)n(NC(=S)NC2CCCCC2)c(=O)c1C#N | inconclusive: 3.98 µM [inhibitor, full curve, poor fit]
4 | CCN1C(=O)c2ccccc2Sc2ccc(NC(=O)c3ccc(Cl)cc3)cc21 | inactive
5 | Nc1ncc(-n2cncn2)c(-c2ccccc2)n1 | inconclusive: 50.1 µM [inhibitor, partial curve, poor fit]
6 | O=C1/C(=C/c2ccccn2)SC(=S)N1CCc1ccccc1 | inactive
7 | COCCn1c(-c2ccc(OC)cc2)nc2c1c(=O)[nH]c(=O)n2CC(C)C | inactive
8 | c1ccc(SCCOCCn2cncn2)cc1 | inconclusive: 2 µM [inhibitor, full curve, poor fit]
9 | c1ccc2c(Nc3ccc(N4CCOCC4)cc3)nc(N3CCOCC3)nc2c1 | inactive
10 | CCN(CC)C(=O)c1ccc2oc(CN3CCN(C(=O)Nc4cccc(Cl)c4C)CC3)nc2c1 | inactive
11 | CCC(=O)N[C@@H]1CC(C(C)(C)NC(=O)CC)CC=C1C (some centres undefined) | inactive
12 | N#CCCn1cc(/C=N/NC(N)=S)c(-c2ccccc2)n1 | active: 25.1 µM
13 | CCOC(=O)Nc1ccc2c(c1)N(C(=O)N1CCN(C)CC1)c1ccccc1S2 | inconclusive: 79.4 µM [inhibitor, partial curve, poor fit]
14 | COC(=O)[C@@]1(C)[C@H]2C(=O)N(C)C(=O)[C@H]2[C@H]2CN=C(SCc3ccc(C#N)cc3)N21 | inconclusive: 3.55 µM [inhibitor, full curve, poor fit]
15 | COc1cc(C(=O)Nc2oc3ccccc3c(=O)c2-c2ccc3c(c2)OCO3)cc(OC)c1OC | inactive
16 | O=C(Nc1ccc(-c2ccccc2)cc1)c1cc(F)c(F)cc1Cl | inconclusive: 2 µM [inhibitor, full curve, poor fit]
17 | Cn1ccc2c(N3CCCCC3)cc3c(c21)C1CCC3O1 (centres undefined) | inconclusive: 141 µM [inhibitor, partial curve, poor fit]
18 | Cc1ccc(OCC(=O)Nc2cc(C)on2)c([N+](=O)[O-])n1 | inconclusive: 79.4 µM [inhibitor, partial curve, poor fit]
19 | CCc1cccc(NC(=O)COC(=O)Cc2cccc3ccccc23)c1 | inconclusive: 112 µM [inhibitor, single point]
20 | O=C(NCCc1noc(-c2ccncc2)n1)c1ccccc1F | active: 28.2 µM
21 | Cc1cc(N2CCC(NCc3nc[nH]c3C)CC2)nc(-c2ccccc2O)n1 | inactive
22 | C=C(C)CNC(=S)NNC(=O)CCn1c2ccc(Cl)cc2c2cc(Cl)ccc21 | active: 31.6 µM
23 | CC(C)(C)c1ccc(C(=O)NC(=S)NCC2CCCO2)cc1 (centres undefined) | active: 7.94 µM

Row | Structure (SMILES) | Potency
24 | O=C(Nc1cc(Cl)cc(Cl)c1)c1ccn2nccc2c1 | inactive
25 | Cc1ccc(C(=O)N2c3ccccc3N=C(c3ccccc3)C2C(=O)NC(C)C)cc1 (centres undefined) | inconclusive: 44.7 µM [inhibitor, partial curve, poor fit]
26 | O=C(O)c1ccc(NCc2cccnc2)c([N+](=O)[O-])c1 | inconclusive: 8.91 µM [inhibitor, full curve, poor fit]
27 | COc1ccc(CC2(CO)CCN(c3nccc(N)n3)CC2)cc1 | inconclusive: 20 µM [inhibitor, full curve]
28 | CC(c1ccc(F)cc1)N1Cc2cc(NC(=O)Cc3cccs3)ccc2OCC1=O (centres undefined) | inconclusive: 17.8 µM [inhibitor, full curve]
29 | O=C(CN1C(=O)NC2(CCCCCC2)C1=O)c1ccc(Cl)s1 | inconclusive: 44.7 µM [inhibitor, partial curve, poor fit]
30 | CCOc1ccc(CN2CCc3nc(Nc4ccc(OC)cc4OC)ncc3C2)cc1 | inactive
31 | C=CCOc1nc2c(c(=O)n(C)c(=O)n2C)n1Cc1ccc(Cl)cc1 | inconclusive: 7.08 µM [inhibitor, full curve, poor fit]
32 | O=C1c2ccccc2NC(c2ccc(-c3cccs3)o2)N1O (centres undefined) | inconclusive: 35.5 µM [inhibitor, full curve, poor fit]
33 | Cc1ccc(O)c(C(=O)N(C)Cc2c(F)cccc2Cl)c1 | active: 39.8 µM
34 | CCOC(=O)c1c(C)[nH]c(C(=O)C(C)Nc2cc(OC)ccc2OC)c1C (centres undefined) | inconclusive: 1.41 µM [inhibitor, partial curve, poor fit]
35 | Cc1ccc(CNS(=O)(=O)c2ccc(N3C(=O)C(C)CS3(=O)=O)cc2)cc1 (centres undefined) | inconclusive: 112 µM [inhibitor, single point]
36 | O=C(NCCCN1CCN(c2ccc(F)cc2)CC1)c1ccc2nc(Cc3ccccc3)oc2c1 | inconclusive: 89.1 µM [inhibitor, partial curve, poor fit]
37 | CCN1C[C@@H]2[C@@H]3C(=O)N(C)C(=O)[C@@H]3[C@](Cc3ccccc3)(C(=O)OC)N2C1=NC1CCCCC1 | inconclusive: 44.7 µM [inhibitor, single point]
38 | CC(C)c1ccc(NC(=O)c2cc3ccccc3oc2=O)cc1 | inconclusive: 50.1 µM [inhibitor, partial curve, poor fit]
39 | Cc1ccc(C(=O)NNC(=S)Nc2cccc(Cl)c2Cl)cc1[N+](=O)[O-] | inconclusive: 56.2 µM [inhibitor, partial curve, poor fit]
40 | CCOC(=O)c1c(CN2CCC(C)CC2)n(C)c2cc(Br)c(OC)cc12 | inactive
41 | Cc1ccc2sc(NC(=O)c3ccc4c(c3)OCCO4)nc2c1C | inconclusive: 112 µM [inhibitor, single point]
42 | CCN1CCN(C(=S)NCC(C)C)CC1 | inconclusive: 20 µM [inhibitor, full curve, poor fit]
43 | O=C(O)C1=C[C@@H](c2csc3ccccc23)C[C@@H](OCCCCO)O1 | inconclusive: 50.1 µM [inhibitor, partial curve, poor fit]
44 | Cc1ccc(-c2noc([C@@H]3C[C@@H](O)CN3Cc3cccc(C#N)c3)n2)cc1F | inconclusive: 56.2 µM [inhibitor, full curve]
45 | COc1ccc(CNC(=O)c2cc(-c3ccc(OC)cc3)nc3ccccc23)cc1 | inconclusive: 28.2 µM [inhibitor, partial curve, poor fit]
46 | CC(C)C(Nc1ccc(C(F)(F)F)cc1[N+](=O)[O-])C(=O)O (centres undefined) | inactive

Row | Structure (SMILES) | Potency
47 | COc1cc(C=O)ccc1OCCOCCOc1c(C)cc(Cl)cc1Cl | inactive
48 | Cn1c(CCCOc2ccc(Cl)cc2Cl)n[nH]c1=S | inconclusive: 44.7 µM [inhibitor, partial curve, poor fit] and inconclusive: 25.1 µM [inhibitor, partial curve, poor fit]
49 | Cc1cc(C(c2ccc(O)cc2)c2cc(C)c(O)cc2C)c(C)cc1O | inconclusive: 39.8 µM [inhibitor, partial curve, poor fit]
50 | Cc1ccc(CS(=O)(=O)Cc2ccc(C(=O)NCc3ccccn3)o2)cc1 | inactive
51 | S=c1[nH]ncn1/N=C/c1cccs1 | inconclusive: 31.6 µM [inhibitor, partial curve, poor fit]
52 | CSc1ccc(/C=C/C(=O)c2ccc3c(c2)NC(=O)CO3)cc1 | inconclusive: 44.7 µM [inhibitor, partial curve, poor fit]
53 | CC1=C(C(=O)Nc2ccc(C)cc2C)C(c2cccs2)n2nc(SCc3ccccc3Cl)nc2N1 (centres undefined) | inconclusive: 63.1 µM [inhibitor, partial curve, poor fit]
54 | COc1ccc(OCc2nc(C3CN(C(=O)c4n[nH]c5ccccc45)C3)no2)cc1 | inactive
55 | COCOc1ccc(-c2ncc(OC)nc2NC(=O)c2cc(C)oc2C)cc1 | inconclusive: 6.31 µM [inhibitor, full curve]
56 | O=C(CCCCCNC(=O)N1CCn2c1nc1ccccc12)N[C@H](C(=O)O)c1ccccc1 | inconclusive: 100 µM [inhibitor, single point]
57 | CC(=O)c1cccc(S(=O)(=O)Oc2ccc3c(C(F)(F)F)cc(=O)oc3c2)c1 | inactive
58 | Cc1cc(C(=O)OCC(=O)Nc2ccc(C)c(F)c2)c2ccccc2n1 | inconclusive: 44.7 µM [inhibitor, partial curve, poor fit]
59 | Cc1onc(-c2ccccc2)c1C(=O)N1CCCC1 | inactive
60 | O=c1[nH]cnc2scc(-c3ccc(-c4ccccc4)cc3)c12 | inactive
61 | COc1cc(C(C[N+](=O)[O-])c2c(C)cc3ccccn23)ccc1O (centres undefined) | inconclusive: 56.2 µM [inhibitor, partial curve, poor fit]
62 | COc1cccc(Cn2c(=O)c(-c3cccc(C#N)c3)nc3cnc(N4CCOCC4)nc32)c1 | inconclusive: 112 µM [inhibitor, single point]
63 | O=C1CCN(S(=O)(=O)c2ccccc2)CCCC(C(=O)NCCN2CCCC2)CCN1 (centres undefined) | inactive
64 | O=Cc1ccc(OCCN2CCCC2)cc1 | inconclusive: 1 µM [inhibitor, full curve]
65 | CCn1c(CSc2nnc(C3CC3)n2C2CC2)nc2cc(S(=O)(=O)N(C)C)ccc21 | inconclusive: 112 µM [inhibitor, single point]
66 | O=[N+]([O-])c1c(Nc2cccc(Cl)n2)ccc2nonc12 | inconclusive: 22.4 µM [inhibitor, partial curve, poor fit]
67 | CCOC(=O)C1=C(O)/C(=C\c2ccc(OC)c(OC)c2)N=C1C | inactive
68 | c1ccc(SCc2nc3ccccc3s2)nc1 | inactive
69 | O=C(NCC(=O)N(Cc1ccco1)C(C(=O)NC1CCCC1)c1ccncc1)c1cccs1 (centres undefined) | inconclusive: 31.6 µM [inhibitor, partial curve, poor fit]
